From paper PMC4865845, “A human genome-wide loss-of-function screen identifies effective chikungunya antiviral drugs” (Nature Communications, 2016)

What was measured:
HEK-293 cells = experiment: Cell viability, Cell Proliferation Reagent WST-1; format: cell-based; conditions: Homo sapiens, HEK293, 18 h, read-out: WST-1 IC50
Experimental: To exclude the possible cytotoxic effects, all compounds were additionally tested using the ‘Cell Proliferation Reagent WST-1' (Roche Diagnostics). HEK-293 cells were treated with the same concentrations of the various substances and 18 h later WST-1 was added. Readout was conducted using the EnVision Multilabel Reader (PerkinElmer).

CHIKV = experiment: microbe, parasite or virus in culture; format: cell-based; conditions: Chikungunya virus, HEK293, read-out: CHIKV IC50

`CNC(=O)c1ccccc1Sc1ccc2c(/C=C/c3ccccn3)n[nH]c2c1` [Axitinib] showed an IC50 (HEK-293 cells) of 340 nM and an IC50 (CHIKV) of 300 nM.
